Results from patent publication US20160022606A1, “NOVEL THERAPY FOR PROSTATE CARCINOMA” (PELLFICURE PHARMACEUTICALS INC., priority 2013, published 2016).
At least one compound was matched to its structure with a doubt left.

System: PTEN-P2 tumor spheroids
Assay: Pseudo-orthotopic dorsal skinfold chamber model, PTEN-P2 tumor spheroids, tumor size
Type: in vivo, nude mice
Details: bicalutamide (Casodex) 10 mg/kg po, once/day; FIG. 2

CC(O)(CS(=O)(=O)c1ccc(F)cc1)C(=O)Nc1ccc(C#N)c(C(F)(F)F)c1 (stereo not shown) [bicalutamide]
tumor size: drastically reduces tumor size
